Experiment [1] addresses β-catenin (human (endogenous in THP-1)) (UniProt P35222). As to the kind of experiment: condition: only cells without combo treatment (vehicle or a single inhibitor); co-IP; THP-1 cells treated with vehicle or a single inhibitor (GSK-LSD1 or LY2090314) for 5 days; 1.5-2 mg cleared lysate, 10 µg antibody pre-bound to protein G Dynabeads, overnight at 4 °C, IP buffer 10 mM Tris-HCl pH 7.6, 150 mM NaCl, 0.2% NP-40; western blot. On the technique in general: Immunoblotting shows a protein as a band on a membrane.

Chains of the proteins cited; added tags and fusions are not shown.
UniProt P35222: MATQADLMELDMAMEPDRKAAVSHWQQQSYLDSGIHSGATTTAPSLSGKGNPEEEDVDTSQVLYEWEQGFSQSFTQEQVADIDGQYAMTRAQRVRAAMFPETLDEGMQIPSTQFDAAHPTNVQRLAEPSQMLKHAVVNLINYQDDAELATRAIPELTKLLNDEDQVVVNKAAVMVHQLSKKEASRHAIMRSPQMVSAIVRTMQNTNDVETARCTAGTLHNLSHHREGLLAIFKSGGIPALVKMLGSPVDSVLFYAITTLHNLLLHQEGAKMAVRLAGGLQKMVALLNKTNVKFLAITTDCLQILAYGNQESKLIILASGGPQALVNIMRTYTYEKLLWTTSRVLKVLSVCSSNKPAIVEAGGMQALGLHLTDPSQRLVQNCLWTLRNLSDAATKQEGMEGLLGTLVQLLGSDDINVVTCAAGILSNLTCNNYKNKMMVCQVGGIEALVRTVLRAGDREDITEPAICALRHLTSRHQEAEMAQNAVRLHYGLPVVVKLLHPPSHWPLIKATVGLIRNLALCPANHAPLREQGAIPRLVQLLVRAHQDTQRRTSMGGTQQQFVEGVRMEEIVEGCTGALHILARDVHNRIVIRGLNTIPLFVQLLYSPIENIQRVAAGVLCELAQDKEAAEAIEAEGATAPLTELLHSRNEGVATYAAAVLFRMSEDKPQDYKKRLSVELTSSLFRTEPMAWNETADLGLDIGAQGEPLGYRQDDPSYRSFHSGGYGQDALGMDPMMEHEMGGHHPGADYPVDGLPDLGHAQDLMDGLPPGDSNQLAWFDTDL

The target is the same in experiment [2]. The experiment is described as follows: co-IP; THP-1 cells treated with the combination of GSK-LSD1 and LY2090314 (combo) for 5 days; 1.5-2 mg cleared lysate, 10 µg antibody pre-bound to protein G Dynabeads, overnight at 4 °C, IP buffer 10 mM Tris-HCl pH 7.6, 150 mM NaCl, 0.2% NP-40; western blot.

Results are given in words; binding and its absence hold for the method and conditions named. Binding seen in cells or lysates may run through a third protein. Some entries that bind do so weakly or less than the wild type.

B1: IRF7 (protein, UniProt Q92985 1-503)
chain: MALAPERAAPRVLFGEWLLGEISSGCYEGLQWLDEARTCFRVPWKHFARKDLSEADARIFKAWAVARGRWPPSSRGGGPPPEAETAERAGWKTNFRCALRSTRRFVMLRDNSGDPADPHKVYALSRELCWREGPGTDQTEAEAPAAVPPPQGGPPGPFLAHTHAGLQAPGPLPAPAGDKGDLLLQAVQQSCLADHLLTASWGADPVPTKAPGEGQEGLPLTGACAGGPGLPAGELYGWAVETTPSPGPQPAALTTGEAAAPESPHQAEPYLSPSPSACTAVQEPSPGALDVTIMYKGRTVLQKVVGHPSCTFLYGPPDPAVRATDPQQVAFPSPAELPDQKQLRYTEELLRHVAPGLHLELRGPQLWARRMGKCKVYWEVGGPPGSASPSTPACLLPRNCDTPIFDFRVFFQELVEFRARQRRGSPRYTIYLGFGQDLSAGRPKEKSLVLVKLEPWLCRVHLEGTQREGVSSLDSSSLSLCLSSANSLYDDIECFLMELEQPA
On to B1, for which the binding result is reported as “no binding” in experiment [1] and “binds” in experiment [2].

For the origin of these results see PMC12158781.
